Paper PMC9309532
For at least one entry, the source does not settle the construct or the ends of the probe. For part of these data: A negative result means that nothing was seen under these conditions.

Legend:
[1] = target: T1, SfSoxC (His-SfSOXC) (Spodoptera frugiperda) (UniProt A0A9R0D0D0); test: competition with a labelled probe; conditions: band of labeled probe weaker at 1-fold, gone at 100-fold molar excess; LightShift Chemiluminescent EMSA Kit (Thermo Fisher), manufacturer's protocol; pH and temperature not stated; recombinant protein; protein details: His
[2] = target: T1, SfSoxC (His-SfSOXC) (Spodoptera frugiperda); test: EMSA; conditions: LightShift Chemiluminescent EMSA Kit (Thermo Fisher), manufacturer's protocol; pH and temperature not stated; recombinant protein; protein details: His; label: biotin

Sequence | binding result [1] | binding result [2]
TGTCGATTCAAAGGTAATT (double strand) [SfEH probe, unlabeled competitor] | binds | 
TGTCGATTCAAAGGTAATT (double strand) [SfEH probe, biotin-tagged] |  | binds
TGTCGAGGACGCTGTAATT (double strand) [SfEH mutated probe, biotin-tagged] |  | no binding
